# Screening data, single-dose tests

Sequences of proteins named here, by UniProt entry; tags and fusion partners are left off. Residues count along the entry.
UniProt A4I591, 1-473: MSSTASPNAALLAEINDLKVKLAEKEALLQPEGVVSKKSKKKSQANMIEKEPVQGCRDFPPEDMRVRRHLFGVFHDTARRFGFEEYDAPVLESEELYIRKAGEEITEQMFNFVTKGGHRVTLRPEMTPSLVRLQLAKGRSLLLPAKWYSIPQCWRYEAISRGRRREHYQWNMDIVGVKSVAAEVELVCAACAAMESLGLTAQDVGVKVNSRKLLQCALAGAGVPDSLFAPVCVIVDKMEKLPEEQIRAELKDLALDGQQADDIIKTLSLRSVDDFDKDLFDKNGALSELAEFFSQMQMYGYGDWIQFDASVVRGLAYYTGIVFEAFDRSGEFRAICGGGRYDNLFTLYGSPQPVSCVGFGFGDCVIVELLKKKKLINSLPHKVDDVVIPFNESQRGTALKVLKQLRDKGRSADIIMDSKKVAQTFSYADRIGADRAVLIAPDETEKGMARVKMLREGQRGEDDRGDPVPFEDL
UniProt P9WFT3, whole entry: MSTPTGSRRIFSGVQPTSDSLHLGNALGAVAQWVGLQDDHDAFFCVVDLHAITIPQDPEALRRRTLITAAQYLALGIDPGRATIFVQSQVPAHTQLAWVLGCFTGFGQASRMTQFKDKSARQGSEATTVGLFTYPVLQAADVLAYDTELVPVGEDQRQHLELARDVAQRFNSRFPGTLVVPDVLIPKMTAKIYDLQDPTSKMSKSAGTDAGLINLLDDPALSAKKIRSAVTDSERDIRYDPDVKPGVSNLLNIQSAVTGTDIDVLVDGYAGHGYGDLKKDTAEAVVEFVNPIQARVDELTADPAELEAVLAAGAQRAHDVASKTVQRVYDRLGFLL
UniProt P9WNZ1, whole entry: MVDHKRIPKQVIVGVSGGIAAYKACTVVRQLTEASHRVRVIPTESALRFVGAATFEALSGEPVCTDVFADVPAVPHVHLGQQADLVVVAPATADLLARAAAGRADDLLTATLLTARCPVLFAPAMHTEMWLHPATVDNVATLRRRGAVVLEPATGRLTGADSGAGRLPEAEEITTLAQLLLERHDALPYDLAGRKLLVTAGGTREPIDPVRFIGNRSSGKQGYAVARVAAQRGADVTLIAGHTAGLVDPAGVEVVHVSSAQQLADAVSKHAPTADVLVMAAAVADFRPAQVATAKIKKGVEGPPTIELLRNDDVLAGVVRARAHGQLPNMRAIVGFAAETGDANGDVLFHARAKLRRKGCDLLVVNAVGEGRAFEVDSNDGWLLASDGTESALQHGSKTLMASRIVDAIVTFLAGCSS

Data taken from ChEMBL document CHEMBL3988442, “University of Dundee, Small-Polar-MMV Screening Library” (2021).

Values are the deposited “Percent Effect”, in %. How 0% and 100% were set is not recorded. Most values in the screen are low, and negative values occur. The compounds are a random part of those screened. A dash means the value is not listed here; it may have been measured.

LiHisRS: 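Enzyme assay of histidyl-tRNA synthetase; the read-out is not stated. Target: Histidine-tRNA ligase, Leishmania infantum (UniProt A4I591). Compounds at 30 µM. Higher reads as stronger inhibition (inferred: compounds with an IC50 in retests scored well above the rest). The assay is labelled LdHisRS but filed under L. infantum. Size under these conditions: about 69,000 compounds, about 410 of them at 50% or above in at least one test.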
MtTrpRS: 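Tryptophan-tRNA ligase, Mycobacterium tuberculosis (UniProt P9WFT3). Enzyme assay of tryptophanyl-tRNA synthetase; the read-out is not stated. Compounds at 10 µM. Direction is not recorded; retested compounds ran higher, which suggests that high means inhibition. Size under these conditions: about 65,000 compounds, about 64 of them at 50% or above in at least one test.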
Toxoplasma: 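Assay of Toxoplasma gondii numbers, read through their beta-galactosidase reporter with a colour substrate. Concentration: 10 µM. The record gives no direction; the compounds picked for IC50 retests had high values, so higher reads as fewer parasites. Size under these conditions: about 67,000 compounds, about 260 of them at 50% or above in at least one test.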
CoaBC: 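Enzyme assay of CoaBC with a phosphate dye (Biomol Green) read at 650 nm. Target: Coenzyme A biosynthesis protein CoaBC, Mycobacterium tuberculosis (UniProt P9WNZ1). Tested at 30 µM. Direction is inferred from only a few compounds that gave an IC50; most scored high, so higher reads as stronger inhibition. Most strong results did not repeat in a second test. Size under these conditions: about 67,000 compounds, about 40 of them at 50% or above in at least one test.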

Compound,LiHisRS,MtTrpRS,Toxoplasma,CoaBC
[H][C@@]12CS(=O)(=O)C[C@]1([H])N(C(=O)c1cc[nH]n1)CCN2CCC,-,-,1.874,-
O=C(O)C(F)(F)F.O=C(O)C(F)(F)F.[H][C@@]12COC[C@H](C(=O)NCc3ccccn3)[C@]1([H])CN(c1ncccn1)C2,-,-,0.4199,-
CSCCC(C)(O)CNS(=O)(=O)Cc1ccc(F)cc1 (centres undefined),19.51,4.751,14.9,2.672
O=C(O)C(F)(F)F.[H][C@@]12C[C@@H](c3nc(C)no3)O[C@]1([H])CN(Cc1cc(C)on1)C2,-,-,-0.6652,-
O=C(COc1ccccc1)N1C[C@@H](O)[C@H](N2CCCC2)C1.O=CO,-,-,9.801,-
CN(C)C1CCC2(CCN(Cc3cccnc3)CC2)c2ccccc21 (centres undefined),15.09,-,-,0.4878
CCOCC1CN(C(=O)c2ccoc2C)Cc2cnn(C)c21 (centres undefined),11.11,17.64,1.433,2.343
O=C(Nc1ccc(-n2ccnc2)c(F)c1)C1CCN(C(=O)C2CC2)CC1,12.07,-3.515,13.97,-0.2141
CS(=O)(=O)NCCCn1ccc2ccccc21,20.43,-1.718,-3.277,3.289
Nc1cccc(C2CN(C(=O)CN3CCOCC3)CCO2)n1 (centres undefined),9.859,-8.084,-,8.789
Cc1cc(CNC(=O)NCCC(=O)N2CCCc3ccccc32)no1,15.54,11.76,3.672,4.459
CCOC(=O)[C@]12CCCN(Cc3nccs3)C[C@H]1CN(S(C)(=O)=O)C2,13.27,-5.976,-,3.158
Cc1cccc(CN2C(=O)C[C@H]3[C@@H]2CCN3Cc2nccs2)n1,15.6,-4.478,-,6.118
O=C(c1ccc(F)cc1F)N1C[C@H]2CC[C@@H]1CN(Cc1ccccc1)C2,39.78,-1.71,-,3.909
Cc1nn2cc(CCNC(=O)c3cc(C(C)C)no3)nc2s1,23.94,3.112,9.155,6.407
O=C(O)C(F)(F)F.O=C(O)C(F)(F)F.[H][C@@]12CCN(Cc3ccccn3)C[C@]1([H])OCCN(c1ccccc1)C2=O,-,-,-4.554,-
NC(=O)CN1CCN(c2ccnc3c(F)ccc(F)c23)CC1,17.46,1.5,0.177,2.593
CSc1ccc(C2CC(=O)Nc3c2c(=O)[nH]c2ncnn32)cc1 (centres undefined),11.86,1.025,-3.437,3.388
Cn1ccnc1CNC[C@H]1Cn2cc(-c3ccccc3)nc2CO1,20.27,-4.78,-5.442,0.2208
COCCN1C(=O)c2ccc(C(=O)NCCc3c[nH]cn3)cc2C1=O,7.692,0.06536,16.75,0.2545
O=C(c1ccc(OCC2CC2)nc1)N1CCCC(n2ccnc2)C1 (centres undefined),25.53,-0.5197,-20.38,3.109
CN(C)C(=O)Cc1ccccc1NCc1cc(C#N)ccc1F,10.17,9.069,-5.827,3.89
O=c1[nH]c2c(c(=O)n1C1CCCCC1)CCC2NCc1ccccc1 (centres undefined),5.263,0.07003,1.597,1.01
O=C1CCC2(CCCN(C(=O)C3CCCC3)C2)CN1CCc1c[nH]cn1 (centres undefined),26.03,-1.847,5.365,-2.121
CCOc1cccc(NC(=O)Cc2cccc(O)c2)n1,-3.2,-1.806,-9.748,-1.22
COC(=O)[C@H]1C[C@@H](O)CCN1S(=O)(=O)c1ccc(F)cc1F,14,7.261,-12.97,4.703
CO[C@H]1CCN(c2nnc(C)s2)C[C@@H]1Cc1ccccc1,30.56,0.8364,-,6.452
O=C(c1ccc(F)cc1)N1C[C@H]2CCC[C@@]2(COCc2ccncc2)C1,18.58,2.789,-,-3.579
COCCN1CCC2(CC1)CC(c1ccccc1)C(=O)N2C (centres undefined),14.52,-1.065,-,2.091
Cc1cc(C(F)(F)F)cc(N2CCN(Cc3ccccc3)CC(O)C2)n1 (centres undefined),16.67,0.9721,2.774,-13.89
COc1ccccc1S(=O)(=O)N1CCC2(CC1)[C@H](O)C[C@@H]2O,3.968,-1.27,13.78,2.948
Cc1ccc(C)c(CSc2nnc([C@@H](N)C(C)C)o2)c1,15.22,0,-,-1.823
Cc1nn(C)c(C)c1C1CCCN1CC(=O)NCc1ccco1 (centres undefined),-6.14,0.8475,21.34,-2.91
COc1ccc(CCN)cc1-c1ccc(O)cc1,-4.225,-0.819,-8.042,-16.02
[H][C@]12CC[C@]([H])(CN(C(=O)Cc3c(C)nc(CC)[nH]c3=O)C1)N(CCC)C2,-,-,8.522,-
Cc1cc2c(N3CCC(N(C)Cc4nccs4)CC3)ncnc2s1,19.35,-4.054,3.772,6.289
COc1ccc(OC2CCN(C(=O)CCc3n[nH]c(C)n3)CC2)cc1,16.81,0.08376,2.473,8.705
CC(C)CNC(=O)N1CCOC2(CCNCC2)C1,16,-4.941,8.01,7.582
O=C(O)C(F)(F)F.c1csc(NCc2n[nH]c3c2CCN(CC2CC2)C3)n1,-,-,4.506,-
Cc1ccc(OCC(=O)Nc2ccc(S(C)(=O)=O)cc2)cc1C,21.69,-8,-5.358,6.796
COc1cccc(N2Cc3nc(=O)n(C(C)C)n3C2=O)c1,10.53,-1.751,-14.83,-1.515
Cc1nc(C)n(CCC(=O)N2CCc3ncc(Cl)cc3C2)n1,13.68,3.42,-8.527,0.7299
COc1ccc(-c2ncccc2C(=O)N2C[C@H]3CC[C@@H]2C3)cn1,12.86,-2.527,-,0.2049
CNS(=O)(=O)c1ccc(CN2CCCN(c3ccccc3)CC2)cc1,19.74,4.296,-1.308,-6.774
COC1CCCN(CCCc2cn[nH]c2)C1 (centres undefined),7.527,-3.924,-3.631,7.202
NCc1ccc(Oc2cccc(Cl)c2Cl)cc1,3.333,2.427,3.273,-16.59
COc1nn(C)c2c1CCCN(C(=O)c1cccc(C)n1)C2,6.364,-,-,0
CCN(C)CC1CCN(C(=O)Nc2ccc(-c3csnn3)cc2)C1 (centres undefined),0,4.237,0.2401,-13.71
CSc1ccc(-c2cc(CN)nc3ccnn23)cc1,20,-,-,-0.6024
O=C(NCC1CC1)C1CN(C(=O)c2cnccn2)CC12CCOCC2 (centres undefined),9.735,7.57,-0.7901,3.158
COc1cccc(C2CN(CCc3ccncc3)CCO2)c1 (centres undefined),7.692,2.395,-3.364,-3.373
Cc1cc(C)n(C2CCCN(C(=O)c3ccc(N(C)C)nc3)C2)n1 (centres undefined),11.61,-1.981,-5.721,-4.47

The first 5 entries again:

Result for [H][C@@]12CS(=O)(=O)C[C@]1([H])N(C(=O)c1cc[nH]n1)CCN2CCC was Toxoplasma: 1.874%.
Result for O=C(O)C(F)(F)F.O=C(O)C(F)(F)F.[H][C@@]12COC[C@H](C(=O)NCc3ccccn3)[C@]1([H])CN(c1ncccn1)C2 was Toxoplasma: 0.4199%.
Result for CSCCC(C)(O)CNS(=O)(=O)Cc1ccc(F)cc1 (centres undefined) was LiHisRS: 19.51%; MtTrpRS: 4.751%; Toxoplasma: 14.9%; CoaBC: 2.672%.
Result for O=C(O)C(F)(F)F.[H][C@@]12C[C@@H](c3nc(C)no3)O[C@]1([H])CN(Cc1cc(C)on1)C2 was Toxoplasma: -0.6652%.
Result for O=C(COc1ccccc1)N1C[C@@H](O)[C@H](N2CCCC2)C1.O=CO was Toxoplasma: 9.801%.